From patent publication US20140179681A1, “METHODS AND COMPOSITIONS OF TARGETED DRUG DEVELOPMENT” (priority 2010, published 2014)

Test system: epithelial carcinoma A431 cell line
Experiment: MTT Cell Proliferation Assay, A431 cells
Type: cell-based
Conditions: Table 10; ratio second/first value (MDBK/A431)
Source text: The following example describes the MTT Cell Proliferation Assay.
The MTT Cell Proliferation Assay is a colorimetric assay system that measures the reduction of the tetrazolium salt MTT (3-(4,5-dimethylthiazol-2-yl)-2,5-diphenyltetrazolium bromide) into insoluble formazan crystals, produced by the mitochondria of viable cells. […] The color can then be quantified by spectrophotometric means. Among the applications for the method are drug sensitivity, cytotoxicity, response to growth factors, and cell activation. The reduction of tetrazolium salts is now recognized as a safe, accurate alternative to radiometric testing.
Two replicates on each cell plate and 2 duplicate plates gave 4 individual replicates of each concentration, in each cell line. Concentrations were diluted in 100% DMSO from 25 mM stocks.
Twelve 96 well plates of each cell line were plated. Plating was done by dislodging cells as in passage protocol, counting on a hemocytometer, re-suspending in standard growth media, and plating using a multichannel pippetor.
16 μl of 25 mM stock+34 μl DMSO=8 mM starting concentrations, and serial diluted as with test compounds in same plate. […] Two replicates of each concentrations was run on each cell plate. All compound addition and cell treatments were done using aseptic technique under a laminar flow aseptic hood.
Control: 0.5% DMSO in treatment media was used as the control.
MTT dye (Thiazolyl Blue Tetrazolium Bromide, Sigma cat #M5655) stock was prepared in bulk and stored at 4° C. for use: 5 mgs/ml sterile PDS, shielded from light. 4 ul of this stock per 100 uls treatment media per well was used.
Plates were incubated overnight prior to treatment, with treatment day=Day 0. Compound treatments were prepared prior to washing cells to minimize time cells were dry at room temperature after final aspiration. Compounds were diluted in 100% DMSO in 96 well polypropylene plates: 40 μl 25 mM stock+10 μl DMSO=20 mM; 20 μl of 20 mM+30 μl DMSO=8 mM; 20 μl of 8 mM+30 μl DMSO=3.2 mM; 20 μl of 3.2 mM+30 μl DMSO=1.3 mM; 20 μl of 1.3 mM+30 μl DMSO=0.51 mM.
5.0 μl/ml were added to treatment media, in sterile, 2.2 ml deep well plates=0.5% dmso final. Ten μl of each dmso concentration was added to 2.0 ml of treatment media and then mixed using a 1200 μl multichannel pipettor. Cell plates were treated from the deep well plates. Treatment media was standard growth media containing 0.5% FBS and standard additions. This reduced FBS concentration allowed for a slower growth rate in cells.
Media was aspirated from cell plates, and washed with 200 μl/well sterile PBS. Aspirated PBS wash, and cell plates were treated with 200 μl of compound/treatment media per well, and incubated at 37° C., 5% CO2 for 3 days.
Prior to harvesting, visual observations were made under an inverted microscope. Plates were harvested by: aspirating the growth media; adding back MTT dye/100 μl treatment media; and incubating plates at 37° C. for 1 hour. MTT dye was aspirated. 100 μl/well dmso was added, and then shaken on a Bellco plate shaker for 5 minutes, at 4.5 setting.
Plates were read in a Tecan Sunrize UV plate reader, at 560 nm. Settings: Read mode, Outside Normal 2 sec; Shake settle time 3 sec. Data is reported as % inhibition, calculated for individual plates using control values from that plate.

Compound | MTT assay (value in parentheses)
O=S(=O)(Nc1cc(Cl)cc(Cl)c1)c1ccc(NC(=S)Nc2cccc(C(F)(F)F)c2)cc1 [AD4-12509] | 0.95
Cc1cc(C)cc(NC(=S)Nc2ccc(S(=O)(=O)Nc3ccc(Cl)cc3)cc2)c1 [AD4-12512] | 0.91
COc1ccc(NC(=S)Nc2ccc(S(=O)(=O)Nc3ccccc3C)cc2)c(OC)c1 [AD4-12517] | 0.66
Cc1ccc(NC(=S)Nc2ccc(S(=O)(=O)Nc3cc(Cl)cc(Cl)c3)cc2)cc1Cl [AD4-12522] | 0.86
COc1ccc(NC(=S)Nc2ccc(S(=O)(=O)Nc3ccc(Cl)cc3)cc2)cc1OC [AD4-12525] | 0.82
COc1ccc(NC(=S)Nc2ccc(S(=O)(=O)Nc3ccccc3C)cc2)cc1OC [AD4-12527] | 0.74
O=S(=O)(Nc1cc(Cl)cc(Cl)c1)c1ccc(NC(=S)Nc2ccc(Cl)c(Cl)c2)cc1 [AD4-12528] | 0.98
CCOc1ccc(NC(=S)Nc2ccc(S(=O)(=O)Nc3cc(Cl)cc(Cl)c3)cc2)cc1 [AD4-12529] | 1.02
COc1ccccc1NS(=O)(=O)c1ccc(NC(=S)Nc2ccc(OC)c(OC)c2)cc1 [AD4-12537] | 1.09
COC(=O)c1sc2cc(NC(=S)Nc3ccc(S(=O)(=O)Nc4c(C)cc(C)cc4C)cc3)ccc2c1Cl [AD4-12560] | 0.59
COc1ccc(NS(=O)(=O)c2ccc(NC(=S)Nc3ccccc3C(F)(F)F)cc2)cc1 [AD4-12577] | 0.89
O=S(=O)(Nc1ccccc1)c1ccc(NC(=S)Nc2ccc(Cl)cc2)cc1 [AD4-12783] | 1.09
CCC(C)c1ccc(NC(=S)Nc2ccc(S(=O)(=O)Nc3ccccc3)cc2)cc1 (stereo not drawn) [AD4-12798] | 1.20
CC1CCc2cc(F)ccc2N1S(=O)(=O)c1ccc(NC(=S)Nc2ccc(Br)cc2)cc1 (stereo not drawn) [AD4-12813] | 1.16
CC(C)c1ccc(NC(=S)Nc2ccc(S(=O)(=O)Nc3ccccc3)cc2)cc1 [AD4-12820] | 0.99
O=S(=O)(Nc1ccccc1)c1ccc(NC(=S)Nc2ccc(Cl)cc2Cl)cc1 [AD4-12822] | 1.02
CCCCc1ccc(NC(=S)Nc2ccc(S(=O)(=O)Nc3ccccc3)cc2)cc1 [AD4-12823] | 1.00

Compound | MTT assay (value in parentheses)
CC(=O)c1cccc(NC(=S)Nc2ccc(S(=O)(=O)N3c4ccc(F)cc4CCC3C)cc2)c1 (stereo not drawn) [AD4-12825] | 0.81
CC1CCc2cc(F)ccc2N1S(=O)(=O)c1ccc(NC(=S)Nc2ccc(Cl)c(Cl)c2)cc1 (stereo not drawn) [AD4-12827] | 0.99
CC1CCc2cc(F)ccc2N1S(=O)(=O)c1ccc(NC(=S)Nc2ccc3c(c2)OCO3)cc1 (stereo not drawn) [AD4-12828] | 2.38
Cc1ccc(Cl)cc1NC(=S)Nc1ccc(S(=O)(=O)N2c3ccc(F)cc3CCC2C)cc1 (stereo not drawn) [AD4-12829] | 1.01
CC1CCc2cc(F)ccc2N1S(=O)(=O)c1ccc(NC(=S)Nc2ccc(Br)cc2Cl)cc1 (stereo not drawn) [AD4-12832] | 2.11
O=S(=O)(Nc1ccccc1)c1ccc(NC(=S)Nc2ccc(Cl)c(Cl)c2)cc1 [AD4-12833] | 1.00
O=S(=O)(Nc1ccccc1)c1ccc(NC(=S)Nc2cccc(C(F)(F)F)c2)cc1 [AD4-12835] | 0.96
CC1CCc2cc(F)ccc2N1S(=O)(=O)c1ccc(NC(=S)Nc2ccc(F)c(Cl)c2)cc1 (stereo not drawn) [AD4-12836] | 0.90
CC1CCc2cc(F)ccc2N1S(=O)(=O)c1ccc(NC(=S)Nc2cccc(F)c2)cc1 (stereo not drawn) [AD4-12837] | 0.90
O=S(=O)(Nc1ccccc1)c1ccc(NC(=S)Nc2cccc(Cl)c2)cc1 [AD4-12842] | 0.83
Cc1ccc(NC(=S)Nc2ccc(S(=O)(=O)Nc3ccccc3)cc2)cc1Cl [AD4-12844] | 0.90
CC1CCc2cc(F)ccc2N1S(=O)(=O)c1ccc(NC(=S)Nc2ccc(F)cc2)cc1 (stereo not drawn) [AD4-12850] | 1.13
O=S(=O)(Nc1ccccc1)c1ccc(NC(=S)Nc2ccc(F)c(Cl)c2)cc1 [AD4-12851] | 0.83
CC1CCc2cc(F)ccc2N1S(=O)(=O)c1ccc(NC(=S)Nc2cccc(Cl)c2Cl)cc1 (stereo not drawn) [AD4-12853] | 0.86
CCc1ccc(NC(=S)Nc2ccc(S(=O)(=O)Nc3ccccc3)cc2)cc1 [AD4-12854] | 1.23
O=S(=O)(Nc1ccccc1)c1ccc(NC(=S)Nc2cc(Cl)ccc2Cl)cc1 [AD4-12855] | 0.92
